Source: doi:10.1101/2020.09.17.302455
Results are given in words; binding and its absence hold for the method and conditions named. Binding can be weak; no strength is given.

Biological target: human plasma fibronectin (human)
Test: ELISA

binding: binds
B1: bone morphogenetic protein 2 (ligand, UniProt P12643 283-396)
chain: QAKHKQRKRLKSSCKRHPLYVDFSDVGWNDWIVAPPGYHAFYCHGECPFPLADHLNSTNHAIVQTLVNSVNSKIPKACCVPTELSAISMLYLDENEKVVLKNYQDMVVEGCGCR
